Results as given in patent US20190317095A1.
Results are given in words; binding and its absence hold for the method and conditions named. Some binding calls cover weakened binding; strength is not graded here.

Sequences of proteins named here, by UniProt entry; tags and fusion partners are left off. Residues count along the entry.
UniProt P60881, residues 1-197: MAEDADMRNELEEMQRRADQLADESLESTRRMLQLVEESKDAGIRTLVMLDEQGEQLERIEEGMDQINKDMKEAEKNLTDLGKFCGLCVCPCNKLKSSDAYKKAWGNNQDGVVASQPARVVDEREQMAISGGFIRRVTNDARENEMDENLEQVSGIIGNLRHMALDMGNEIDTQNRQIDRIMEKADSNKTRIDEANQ

What was measured:
[1] = target: SNAP25197, BoNT/A-cleaved SNAP25 (rat) (rat) (UniProt P60881); test: IHC, rat bladder +/- BOTOX (FIG. 8)
[2] = target: SNAP25197, BoNT/A-cleaved SNAP25 (rat) (rat) (UniProt P60881); test: IHC, rat bladder treated with BOTOX (FIG. 8K-O)
[3] = target: SNAP25197, BoNT/A-cleaved SNAP25 (rat) (rat) (UniProt P60881); test: IHC, rat bladder treated with BOTOX (FIG. 8)

Measured: binding

B1: original non-recombinant 3C1A5 mAb purified from ascites (antibody, V domains shown)
VH: QVKLQESGAELVKPGASVKISCKASGYTFTDHSIHWVKQKPGQGLEWIGYLFPGNGNFEYNEKFKGKATLTADKSSSTVYMYLNSLTSEDSAVYFCKRMGYWGQGTTVTVSS
VL: DVVMTQTPLTLSVTIGQPASISCKSSQSLLNTNGKTYLTWLIQRPGQSPQRLIYLVSKLDSGVPDRFSGSGSGTDFTLKISRVEAEDLGVYYCLQSSHFPFTFGSGTKLEIK
binds: all assays above
